Data as given in PubChem BioAssay AID2551 (National Center for Advancing Translational Sciences (NCATS), 2010).
In all, about 310,000 compounds went through this assay and about 17,000 (5.5%) were called active. Inconclusive means that the source gave no clear call. Such entries were picked first, then a sample of the others. The call rests on the fitted dose curve; in most records, active means well fitted inhibition curve with a large enough effect; inconclusive means small, poorly fitted or top-dose-only effect, or effect the other way; inactive means no such curve, though single readings can be large or run the other way. A potency beside an inconclusive call is a rough fit, not a confirmed value.

By UniProt entry, the sequences of proteins in these tests, tags left out. Where a name states a change or a piece, a line headed by the entry shows the natural chain unless it says otherwise.
UniProt P51450: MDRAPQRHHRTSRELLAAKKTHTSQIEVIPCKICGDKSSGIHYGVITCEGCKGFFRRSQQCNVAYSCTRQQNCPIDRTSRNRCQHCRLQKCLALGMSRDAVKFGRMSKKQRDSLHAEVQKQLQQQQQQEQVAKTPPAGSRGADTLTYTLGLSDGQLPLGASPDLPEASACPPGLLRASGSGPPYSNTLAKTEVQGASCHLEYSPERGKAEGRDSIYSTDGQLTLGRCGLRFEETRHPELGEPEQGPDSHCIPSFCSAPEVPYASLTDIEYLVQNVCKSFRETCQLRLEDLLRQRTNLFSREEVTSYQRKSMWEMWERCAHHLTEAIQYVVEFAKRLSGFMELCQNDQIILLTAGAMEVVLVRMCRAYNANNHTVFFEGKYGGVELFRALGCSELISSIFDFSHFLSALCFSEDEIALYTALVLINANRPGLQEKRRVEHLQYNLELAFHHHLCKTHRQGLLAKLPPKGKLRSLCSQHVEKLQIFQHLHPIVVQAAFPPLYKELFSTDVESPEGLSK

The molecules below were run against Nuclear receptor ROR-gamma (Mus musculus) (UniProt P51450) (assay: qHTS for inhibitors of ROR gamma transcriptional activity). Conditions: Drosophila S2 Gal4-RORgamma UAS-luciferase reporter, 20 h; activity change, negative = inhibition: at 53.6 µM (top of the series).
Procedure, shortened: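 Luminescence from a UAS-regulated Photinus luciferase reporter in stably transfected Drosophila Schneider cells is measured; decreased signal marks ROR gamma inhibition. Fusion expression is induced by 700 uM copper sulfate for 20 hr.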
Further: nearly all actives have a fitted effect of over 60% in size.
On the % scale 0 is the no-effect control and ±100 the full control effect; potency means the concentration at half of the fitted maximal effect.

| SMILES | Potency | activity change, negative = inhibition |
| --- | --- | --- |
| S=C(NCc1ccco1)Nc1ccc(Cl)cc1Cl | active: 11.2 µM |  |
| COc1ccc(/C=C/C(=O)c2ccc(NC3=NCCCS3)cc2)cc1OC | inconclusive: 35.5 µM [inhibitor, single point] |  |
| CC(=O)NC(=S)Nc1cccc([N+](=O)[O-])c1 | inconclusive: 10 µM [inhibitor, partial curve] |  |
| CCOC(=O)c1c(-c2ccc(OC)cc2)csc1NC(=O)CNCc1ccco1 | active: 5.01 µM |  |
| C=CCC1(CC=C)CCCN1C(=O)C1CCC(=O)N(CCc2ccc(Cl)cc2)C1 (stereo not given) | inconclusive: 35.5 µM [activator, single point] |  |
| COC(=O)/C(NC(C)=O)=C(\C)c1ccc(Cl)cc1 | inconclusive: 6.31 µM [activator, single point] |  |
| OCCN1CCN(CC(O)COC(c2ccc(F)cc2)c2ccc(F)cc2)CC1 (stereo not given) | inactive |  |
| C/C(=N/NS(=O)(=O)c1ccc(C)cc1C)c1c[nH]c2ccccc12 | inconclusive: 10 µM [activator, partial curve] |  |
| CCN(CC)S(=O)(=O)c1cccc(C(=O)NC(C)C(c2cccs2)N2CCCC2)c1 (stereo not given) | inactive |  |
| Cc1ccc(C)c(S(=O)(=O)Nc2ccc(C(=O)N3CCCCC3)cc2)c1 | inconclusive: 35.5 µM [activator, single point] |  |
| COCC1CCCCN1C(=O)c1ccc2nc(Cc3ccc(OC)c(OC)c3)oc2c1 (stereo not given) | inconclusive: 5.01 µM [activator, single point] |  |
| COc1ccc(/C=C/c2cc(C(=O)O)c3ccccc3n2)cc1 | active: 1.12 µM |  |
| CCOC(=O)C(c1ccccc1)C(Nc1cc(C(F)(F)F)cc(C(F)(F)F)c1)c1ccccn1 (stereo not given) | inactive |  |
| O=C(NC(=S)NCc1ccccc1)c1ccc(Br)o1 | inconclusive: 6.31 µM [inhibitor, single point] |  |
| CC1(C)Cc2c(C#N)c(NCC3CCCO3)nc(-c3ccco3)c2CO1 (stereo not given) | inconclusive: 11.2 µM [inhibitor, partial curve, poor fit] |  |
| CCOc1ccc(N(Cc2cc3cc(OC)ccc3[nH]c2=O)C(=O)C2CCCO2)cc1 (stereo not given) | inconclusive: 0.562 µM [inhibitor, full curve] |  |
| COc1ccc(-c2nc(N3CCN(C)CC3)sc2-c2ccc(OC)cc2)cc1 | inconclusive: 35.5 µM [inhibitor, single point] |  |
| Cc1ccnc2nc(C(=O)Nc3nnc(-c4ccc(Cl)cc4)o3)nn12 | inactive |  |
| O=C(CSc1nc2ccccc2o1)N1CCN(c2ccccc2)CC1 | inconclusive: 0.0251 µM [inhibitor, full curve, poor fit] |  |
| CCn1c(C(C)NC(=O)c2cccc(C)c2)n[nH]c1=S (stereo not given) | inactive |  |
| N#C/C(=C\c1cc([N+](=O)[O-])c(N2CCOCC2)cc1N1CCOCC1)c1nc2ccccc2[nH]1 | inconclusive: 22.4 µM [activator, single point] |  |
| CCOc1ccccc1C(=O)Nc1cc(Cl)ccc1O | inconclusive: 28.2 µM [activator, single point] |  |
| C/C(CC1CC(COCCC(C)C)OC1=O)=N\NC(N)=S (stereo not given) | inconclusive: 22.4 µM [inhibitor, single point] |  |
| Cc1cc(NC(=O)c2ccc(-c3ccccc3F)o2)no1 | inconclusive: 17.8 µM [inhibitor, single point] |  |
| Cc1cccc(N/C=C/C(=O)c2ccc(Cl)cc2)c1 | active: 3.16 µM |  |

| SMILES | Potency | activity change, negative = inhibition |
| --- | --- | --- |
| CCOc1cc(C2C(C#N)=C(N)SC(N)=C2C#N)ccc1OCCN1CCOCC1 | inconclusive: 6.31 µM [inhibitor, single point] |  |
| CN(Cc1nc2ccccc2[nH]1)C(=O)C1CCC(=O)N(CCc2cccc(F)c2)C1 (stereo not given) | inactive |  |
| COc1cccc(-c2onc3ccc(C(C)=O)cc23)c1 | inactive |  |
| O=C(NCC1CCCO1)C1CCN(C2CCN(CCCC3CCCC3)CC2)CC1 (stereo not given) | inactive |  |
| COc1ccc(C(=O)NC(=S)Nc2ccc3oc(=O)ccc3c2)cc1[N+](=O)[O-] | inconclusive: 0.708 µM [inhibitor, single point] |  |
| Cc1cccc(-n2c(-c3csc4ccccc34)n[nH]c2=S)c1 | active: 2 µM |  |
| O=C(O)C1CC[C@@](C(=O)O)(c2ccccc2)c2ccccc21 (stereo not given in full) | inactive |  |
| COc1cc(/C(C)=C/c2ccccc2)c2c(c1)oc1ccccc12 | inactive |  |
| C/C(=N/NC(=O)CN(c1ccccc1)S(=O)(=O)c1ccccc1)c1ccccc1O | active: 0.708 µM |  |
| Cc1ccc2nc(Nc3ncc4c(n3)CC(C)(C)CC4=O)nc(C)c2c1 | inconclusive: 3.16 µM [inhibitor, full curve] |  |
| Cc1c(C=O)c2ccccc2n1CCOc1ccccc1 | inactive |  |
| O=C(c1ccccc1)N1N=C(C(F)(F)F)CC1(O)c1ccc(F)cc1 (stereo not given) | active: 20 µM |  |
| COc1ccc(N2CC(C(=O)Nc3ccc(S(=O)(=O)N4CCCCC4)cc3)CC2=O)cc1 (stereo not given) | inconclusive: 35.5 µM [activator, single point] |  |
| COc1ccc(Cn2c(O)c(C=Nc3ccc(C)cc3)c3ccccc3c2=O)cc1 | inactive |  |
| O=C(O)c1ccccc1NS(=O)(=O)c1ccccc1C(F)(F)F | inconclusive: 35.5 µM [inhibitor, single point] |  |
| O=C1C2C3C=CC(C4CC34)C2C(=O)N1/N=C/c1ccc(-c2ccc([N+](=O)[O-])cc2)o1 (stereo not given) | inactive |  |
| Cc1cc(-c2ccc(C)c(S(=O)(=O)NCCCN3CCCCCC3)c2)on1 | inactive |  |
| O=C(CSc1nnc(Cc2cccs2)n1Cc1ccco1)Nc1ccc(Br)cc1 | inactive |  |
| COc1ccc(C(=O)N2CCCC2(C#N)c2ccccc2)cc1[N+](=O)[O-] (stereo not given) | inconclusive: 35.5 µM [activator, single point] |  |
| Cc1ccccc1CN1C(=O)CS/C1=N/N=C/c1ccco1 | inconclusive: 12.6 µM [inhibitor, single point] |  |
| CCc1nc(OCc2ccco2)c2sc3nc4c(cc3c2n1)COC(C)(C)C4 | inconclusive: 14.1 µM [inhibitor, single point] |  |
| Nc1ncn(C2C[C@H](O)[C@@H](CO)O2)c(=O)n1 (stereo not given in full) |  | inactive: -0.25% [at 10 µM] |
| c1ccc(Nc2ncnc3ccc(-c4ccc5c(c4)OCO5)cc23)cc1 | inconclusive: 12.6 µM [activator, single point] |  |
| CC(=O)Nc1cccc(NC(=O)c2sc3ncn(CC(=O)N4CCCCC4)c(=O)c3c2C)c1 |  | inactive: -8.98% [at 0.365 µM] |
| Cc1ccc(COC(=O)c2nn(C)c(=O)c3ccccc23)cc1 | inconclusive: 3.16 µM [activator, full curve, poor fit] |  |

In the list so far, these contain an aryl methoxy group:

| SMILES | Potency | activity change, negative = inhibition |
| --- | --- | --- |
| COc1ccc(/C=C/C(=O)c2ccc(NC3=NCCCS3)cc2)cc1OC | inconclusive: 35.5 µM [inhibitor, single point] |  |
| CCOC(=O)c1c(-c2ccc(OC)cc2)csc1NC(=O)CNCc1ccco1 | active: 5.01 µM |  |
| COCC1CCCCN1C(=O)c1ccc2nc(Cc3ccc(OC)c(OC)c3)oc2c1 (stereo not given) | inconclusive: 5.01 µM [activator, single point] |  |
| COc1ccc(/C=C/c2cc(C(=O)O)c3ccccc3n2)cc1 | active: 1.12 µM |  |
| CCOc1ccc(N(Cc2cc3cc(OC)ccc3[nH]c2=O)C(=O)C2CCCO2)cc1 (stereo not given) | inconclusive: 0.562 µM [inhibitor, full curve] |  |
| COc1ccc(-c2nc(N3CCN(C)CC3)sc2-c2ccc(OC)cc2)cc1 | inconclusive: 35.5 µM [inhibitor, single point] |  |
| COc1cccc(-c2onc3ccc(C(C)=O)cc23)c1 | inactive |  |
| COc1ccc(C(=O)NC(=S)Nc2ccc3oc(=O)ccc3c2)cc1[N+](=O)[O-] | inconclusive: 0.708 µM [inhibitor, single point] |  |
| COc1cc(/C(C)=C/c2ccccc2)c2c(c1)oc1ccccc12 | inactive |  |
| COc1ccc(N2CC(C(=O)Nc3ccc(S(=O)(=O)N4CCCCC4)cc3)CC2=O)cc1 (stereo not given) | inconclusive: 35.5 µM [activator, single point] |  |
| COc1ccc(Cn2c(O)c(C=Nc3ccc(C)cc3)c3ccccc3c2=O)cc1 | inactive |  |
| COc1ccc(C(=O)N2CCCC2(C#N)c2ccccc2)cc1[N+](=O)[O-] (stereo not given) | inconclusive: 35.5 µM [activator, single point] |  |

Next compounds.

| SMILES | Potency | activity change, negative = inhibition |
| --- | --- | --- |
| CC(=O)c1ccc(N2C(=NC(=O)CCc3ccccc3)SC3CS(=O)(=O)CC32)cc1 (stereo not given) | inactive |  |
| O=C(CSc1cccc2cccnc12)Nc1ccccc1F | inconclusive: 35.5 µM [inhibitor, single point] |  |
| COc1cc(-c2csc(CCn3nc(C)cc3C)n2)cc(OC)c1OC | inactive |  |
| S=c1[nH]nc(COc2ccccc2)n1/N=C/c1ccc(Cl)cc1 | inconclusive: 1.78 µM [inhibitor, partial curve] |  |
| N#C/C(=C1/C(=O)Nc2ccc(Br)cc21)c1ccccn1 | inactive |  |
| O=S(=O)(NC1CC2CCC1C2)c1ccc(Br)s1 (stereo not given) | inactive |  |
| Cc1nnc(NC(=O)CN2CCN(Cc3ccc(F)cc3Cl)CC2)s1 | inconclusive: 31.6 µM [inhibitor, single point] |  |
| Cc1ccc2c(c1)sc[n+]2Cc1ccccc1 | inconclusive: 35.5 µM [inhibitor, single point] |  |
| O=C1CN(C(=O)c2cc3ccccc3oc2=O)C(c2ccc(F)cc2)c2cc(Br)ccc2N1 (stereo not given) | inconclusive: 15.8 µM [activator, single point] |  |
| COc1ccccc1S(=O)(=O)Cc1ccc(C(=O)N2CCN(c3cccc(Cl)c3)CC2)o1 | inactive |  |
| Cc1ccc(S(=O)(=O)N2CCCCC2)cc1NC(=O)COC(=O)C1CC2C=CC1C2 (stereo not given) | inconclusive: 4.47 µM [activator, full curve, poor fit] |  |
| C=CCSc1nnc(NC(=O)CSc2ccccn2)s1 | inconclusive: 35.5 µM [inhibitor, single point] |  |
| O=C(Nc1cccc(-c2nc3ccccc3s2)c1)c1cccs1 | inactive |  |
| CN(Cc1ccco1)c1ncncc1-c1cccc(C#N)c1 | inactive |  |
| COc1ccc(N/N=C/c2c(C(=O)O)ccc3ccccc23)cc1 | active: 1.41 µM |  |
| CCNS(=O)(=O)c1ccc(S(=O)(=O)N(Cc2ccccn2)C2CCCCC2)cc1 | inconclusive: 17.8 µM [inhibitor, single point] |  |
| Cc1ccc(OCCCOc2cccc3cccnc23)cc1C | active: 14.1 µM |  |
| COc1ccccc1Oc1ccc2c(c1)C(=O)N(c1ccccc1)C2=O | inconclusive: 11.2 µM [activator, partial curve] |  |
| NC(=S)N/N=C/c1ccccc1[N+](=O)[O-] | inactive |  |
| O=C(NC12CC3CC(CC(C3)C1)C2)C1CC(=O)N(c2ccccc2)C1 (stereo not given) | inactive |  |
| C/C(=N\NC(=O)CSCc1ccc(Cl)cc1)c1ccc(NC(=O)c2ccccc2)cc1 | inactive |  |
| CCOC(=O)c1ccc(N2C(=O)CC(N3CCC(C(N)=O)(N4CCCCC4)CC3)C2=O)cc1 (stereo not given) | inconclusive: 35.5 µM [inhibitor, single point] |  |
| Cc1ccc(OCC(=O)N2CCN(C(=O)c3ccc([N+](=O)[O-])cc3)CC2)cc1 | inconclusive: 35.5 µM [inhibitor, single point] |  |
| CC(C)Nc1nc(NNc2nc(Cl)nc(NC(C)(C)C)n2)nc(NC(C)C)n1 | active: 0.398 µM |  |
| S=c1[nH]nc(-c2ccc3ccccc3n2)n1Cc1ccccc1 | active: 2.24 µM |  |
